The supplement of paper PMC7666118
The list shows a part of the results.

Protein sequences, listed by entry. Tags and fused reporters are not part of them. Lines headed by an entry give the natural chain unless they say otherwise; changes in a name come on top.
UniProt Q7Z392: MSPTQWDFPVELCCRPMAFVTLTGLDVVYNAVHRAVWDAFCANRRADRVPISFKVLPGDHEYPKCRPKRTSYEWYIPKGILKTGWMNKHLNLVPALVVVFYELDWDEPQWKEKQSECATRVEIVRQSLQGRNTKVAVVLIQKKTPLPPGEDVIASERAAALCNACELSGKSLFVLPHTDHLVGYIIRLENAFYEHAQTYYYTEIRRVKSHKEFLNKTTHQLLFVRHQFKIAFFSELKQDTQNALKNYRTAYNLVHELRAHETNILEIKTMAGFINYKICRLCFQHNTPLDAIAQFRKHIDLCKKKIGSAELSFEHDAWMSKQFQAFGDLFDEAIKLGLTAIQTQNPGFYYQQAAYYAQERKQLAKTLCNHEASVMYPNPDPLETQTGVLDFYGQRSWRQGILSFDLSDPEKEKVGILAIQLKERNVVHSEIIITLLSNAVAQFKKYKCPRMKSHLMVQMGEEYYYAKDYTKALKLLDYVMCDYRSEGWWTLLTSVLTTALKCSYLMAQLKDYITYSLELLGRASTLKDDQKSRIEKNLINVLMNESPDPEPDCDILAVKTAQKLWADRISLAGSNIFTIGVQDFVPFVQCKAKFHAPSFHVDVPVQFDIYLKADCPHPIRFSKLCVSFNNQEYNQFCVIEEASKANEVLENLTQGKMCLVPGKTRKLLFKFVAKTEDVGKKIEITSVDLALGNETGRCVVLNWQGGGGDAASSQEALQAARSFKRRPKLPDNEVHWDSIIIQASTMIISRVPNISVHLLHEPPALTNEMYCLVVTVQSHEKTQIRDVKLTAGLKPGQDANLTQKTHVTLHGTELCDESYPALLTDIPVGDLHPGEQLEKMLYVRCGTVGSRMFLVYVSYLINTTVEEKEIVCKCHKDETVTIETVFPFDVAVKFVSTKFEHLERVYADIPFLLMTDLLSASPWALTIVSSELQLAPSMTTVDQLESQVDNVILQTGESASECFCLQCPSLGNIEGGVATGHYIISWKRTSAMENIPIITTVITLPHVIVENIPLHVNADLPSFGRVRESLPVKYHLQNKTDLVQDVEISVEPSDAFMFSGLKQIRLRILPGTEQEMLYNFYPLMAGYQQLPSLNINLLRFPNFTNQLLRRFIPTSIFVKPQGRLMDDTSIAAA
UniProt P40121: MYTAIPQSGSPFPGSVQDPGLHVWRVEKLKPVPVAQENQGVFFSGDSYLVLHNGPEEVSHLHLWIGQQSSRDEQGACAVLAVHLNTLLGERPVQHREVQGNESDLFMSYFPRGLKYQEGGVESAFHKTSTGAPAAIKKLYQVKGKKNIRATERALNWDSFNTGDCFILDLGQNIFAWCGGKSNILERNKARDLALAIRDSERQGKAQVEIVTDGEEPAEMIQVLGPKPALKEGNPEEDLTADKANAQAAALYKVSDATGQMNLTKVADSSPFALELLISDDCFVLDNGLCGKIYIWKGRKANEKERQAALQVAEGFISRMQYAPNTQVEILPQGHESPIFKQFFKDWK
UniProt Q86SX3: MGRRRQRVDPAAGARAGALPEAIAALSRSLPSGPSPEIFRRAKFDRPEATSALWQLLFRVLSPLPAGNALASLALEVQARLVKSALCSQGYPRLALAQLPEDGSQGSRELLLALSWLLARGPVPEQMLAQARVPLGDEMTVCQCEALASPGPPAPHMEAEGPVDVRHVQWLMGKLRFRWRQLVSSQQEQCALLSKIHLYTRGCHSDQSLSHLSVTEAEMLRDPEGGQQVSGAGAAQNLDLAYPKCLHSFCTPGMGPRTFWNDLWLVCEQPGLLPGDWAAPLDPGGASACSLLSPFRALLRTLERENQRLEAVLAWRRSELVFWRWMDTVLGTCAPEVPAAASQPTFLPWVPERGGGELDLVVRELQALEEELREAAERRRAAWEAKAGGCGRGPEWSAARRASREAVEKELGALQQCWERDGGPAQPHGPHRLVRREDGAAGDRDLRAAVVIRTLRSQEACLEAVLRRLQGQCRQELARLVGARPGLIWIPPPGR
UniProt Q9NWV4: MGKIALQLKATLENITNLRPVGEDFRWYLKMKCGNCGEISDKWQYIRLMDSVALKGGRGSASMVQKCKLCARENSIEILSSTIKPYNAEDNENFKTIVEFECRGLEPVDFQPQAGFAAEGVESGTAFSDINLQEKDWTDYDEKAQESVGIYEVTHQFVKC
UniProt Q8WVQ1: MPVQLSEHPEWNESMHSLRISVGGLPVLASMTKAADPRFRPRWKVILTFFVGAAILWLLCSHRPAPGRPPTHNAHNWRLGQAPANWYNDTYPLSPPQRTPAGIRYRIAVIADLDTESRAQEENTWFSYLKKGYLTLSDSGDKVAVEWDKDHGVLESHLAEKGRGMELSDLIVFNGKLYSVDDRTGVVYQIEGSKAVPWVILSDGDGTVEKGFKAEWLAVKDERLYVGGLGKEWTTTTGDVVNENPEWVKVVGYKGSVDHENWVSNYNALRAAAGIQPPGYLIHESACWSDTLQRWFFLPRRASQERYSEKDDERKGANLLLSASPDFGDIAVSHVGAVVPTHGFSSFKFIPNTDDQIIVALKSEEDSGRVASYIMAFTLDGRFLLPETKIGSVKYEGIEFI
UniProt Q9BRT2: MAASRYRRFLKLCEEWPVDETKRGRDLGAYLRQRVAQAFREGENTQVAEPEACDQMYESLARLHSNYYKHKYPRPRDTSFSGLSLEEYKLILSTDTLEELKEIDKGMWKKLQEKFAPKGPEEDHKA
UniProt P16152: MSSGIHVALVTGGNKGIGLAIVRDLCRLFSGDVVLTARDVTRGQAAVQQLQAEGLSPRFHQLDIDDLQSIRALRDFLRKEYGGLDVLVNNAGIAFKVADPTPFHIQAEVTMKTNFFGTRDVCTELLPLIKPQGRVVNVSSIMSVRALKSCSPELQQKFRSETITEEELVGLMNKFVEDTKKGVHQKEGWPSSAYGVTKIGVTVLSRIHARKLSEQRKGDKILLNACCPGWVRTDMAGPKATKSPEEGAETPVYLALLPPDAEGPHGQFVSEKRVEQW
UniProt Q8WUW1: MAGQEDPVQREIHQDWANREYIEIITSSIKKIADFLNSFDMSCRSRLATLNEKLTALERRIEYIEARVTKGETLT
UniProt Q96BW9: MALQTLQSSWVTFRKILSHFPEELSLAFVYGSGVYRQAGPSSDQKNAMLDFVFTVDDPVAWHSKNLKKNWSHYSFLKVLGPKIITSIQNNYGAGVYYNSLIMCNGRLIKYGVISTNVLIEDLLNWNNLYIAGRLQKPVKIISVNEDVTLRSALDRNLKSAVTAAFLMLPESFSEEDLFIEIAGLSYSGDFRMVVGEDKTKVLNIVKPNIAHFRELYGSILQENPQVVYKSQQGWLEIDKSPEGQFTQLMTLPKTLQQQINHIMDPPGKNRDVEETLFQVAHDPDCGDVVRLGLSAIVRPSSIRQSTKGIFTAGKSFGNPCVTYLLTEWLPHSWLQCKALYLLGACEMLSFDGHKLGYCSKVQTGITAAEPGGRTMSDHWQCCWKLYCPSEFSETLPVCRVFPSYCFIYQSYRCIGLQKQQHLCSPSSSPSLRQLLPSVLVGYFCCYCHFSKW
UniProt Q9NXF7, whole entry: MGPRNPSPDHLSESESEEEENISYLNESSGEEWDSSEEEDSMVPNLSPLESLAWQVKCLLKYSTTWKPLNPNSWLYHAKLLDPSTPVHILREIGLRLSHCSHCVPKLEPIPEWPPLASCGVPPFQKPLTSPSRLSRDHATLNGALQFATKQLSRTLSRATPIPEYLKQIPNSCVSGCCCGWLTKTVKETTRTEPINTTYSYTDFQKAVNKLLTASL
UniProt Q9NPL8: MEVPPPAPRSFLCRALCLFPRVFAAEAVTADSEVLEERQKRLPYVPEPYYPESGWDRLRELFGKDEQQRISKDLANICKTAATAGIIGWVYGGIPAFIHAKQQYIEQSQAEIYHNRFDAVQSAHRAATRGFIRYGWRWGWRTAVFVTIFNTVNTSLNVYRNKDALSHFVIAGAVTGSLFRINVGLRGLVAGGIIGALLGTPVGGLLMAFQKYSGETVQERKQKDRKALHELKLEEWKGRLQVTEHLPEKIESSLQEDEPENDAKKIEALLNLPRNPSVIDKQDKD
UniProt Q9Y312: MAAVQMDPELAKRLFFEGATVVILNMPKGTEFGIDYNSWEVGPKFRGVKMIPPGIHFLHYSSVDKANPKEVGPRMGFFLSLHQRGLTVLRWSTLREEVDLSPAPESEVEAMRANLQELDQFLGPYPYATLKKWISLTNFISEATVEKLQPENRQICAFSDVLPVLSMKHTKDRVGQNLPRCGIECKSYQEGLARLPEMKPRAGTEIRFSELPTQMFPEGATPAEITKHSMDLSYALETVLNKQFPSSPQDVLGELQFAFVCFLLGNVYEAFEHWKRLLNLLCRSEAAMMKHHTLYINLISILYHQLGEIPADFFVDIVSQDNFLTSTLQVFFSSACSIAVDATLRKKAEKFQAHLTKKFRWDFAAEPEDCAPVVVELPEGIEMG
UniProt Q6ZRQ5: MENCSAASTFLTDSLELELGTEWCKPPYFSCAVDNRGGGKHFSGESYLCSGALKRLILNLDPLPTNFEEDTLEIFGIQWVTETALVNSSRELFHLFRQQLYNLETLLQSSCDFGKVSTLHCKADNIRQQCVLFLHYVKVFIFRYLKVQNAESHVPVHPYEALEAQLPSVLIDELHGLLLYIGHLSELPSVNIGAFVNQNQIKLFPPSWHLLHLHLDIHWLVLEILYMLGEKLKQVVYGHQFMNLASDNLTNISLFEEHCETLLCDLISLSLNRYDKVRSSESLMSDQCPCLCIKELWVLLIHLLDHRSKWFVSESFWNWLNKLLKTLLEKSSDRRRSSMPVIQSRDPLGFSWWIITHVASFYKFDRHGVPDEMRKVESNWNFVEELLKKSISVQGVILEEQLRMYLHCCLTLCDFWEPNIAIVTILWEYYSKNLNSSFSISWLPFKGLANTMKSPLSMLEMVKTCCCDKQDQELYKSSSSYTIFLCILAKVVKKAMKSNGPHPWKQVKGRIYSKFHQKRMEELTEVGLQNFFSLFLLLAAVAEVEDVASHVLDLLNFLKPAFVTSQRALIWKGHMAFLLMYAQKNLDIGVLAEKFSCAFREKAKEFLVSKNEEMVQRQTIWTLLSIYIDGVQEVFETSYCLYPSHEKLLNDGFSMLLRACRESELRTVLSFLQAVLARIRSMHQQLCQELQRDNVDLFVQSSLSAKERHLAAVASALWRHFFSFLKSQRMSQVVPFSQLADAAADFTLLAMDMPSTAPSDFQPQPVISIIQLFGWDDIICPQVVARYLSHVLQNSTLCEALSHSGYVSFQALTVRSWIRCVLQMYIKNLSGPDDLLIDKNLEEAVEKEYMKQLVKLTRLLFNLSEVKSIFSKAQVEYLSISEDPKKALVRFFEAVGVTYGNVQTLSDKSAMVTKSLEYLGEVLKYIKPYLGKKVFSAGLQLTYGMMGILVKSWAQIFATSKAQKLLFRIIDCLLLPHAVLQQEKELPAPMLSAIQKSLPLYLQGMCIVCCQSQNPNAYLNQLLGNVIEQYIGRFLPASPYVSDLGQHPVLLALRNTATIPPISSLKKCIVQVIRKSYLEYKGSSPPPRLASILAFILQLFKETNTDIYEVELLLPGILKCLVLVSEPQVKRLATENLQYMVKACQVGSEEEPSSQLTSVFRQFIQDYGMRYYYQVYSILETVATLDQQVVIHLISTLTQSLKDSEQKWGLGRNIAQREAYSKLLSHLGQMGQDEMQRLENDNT
UniProt Q8WUY1: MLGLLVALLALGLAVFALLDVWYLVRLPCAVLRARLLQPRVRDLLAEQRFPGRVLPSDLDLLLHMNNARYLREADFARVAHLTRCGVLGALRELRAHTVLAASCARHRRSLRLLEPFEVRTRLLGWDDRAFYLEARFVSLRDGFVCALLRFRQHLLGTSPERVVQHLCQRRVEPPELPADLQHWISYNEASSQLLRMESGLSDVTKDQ
UniProt Q9BVC5: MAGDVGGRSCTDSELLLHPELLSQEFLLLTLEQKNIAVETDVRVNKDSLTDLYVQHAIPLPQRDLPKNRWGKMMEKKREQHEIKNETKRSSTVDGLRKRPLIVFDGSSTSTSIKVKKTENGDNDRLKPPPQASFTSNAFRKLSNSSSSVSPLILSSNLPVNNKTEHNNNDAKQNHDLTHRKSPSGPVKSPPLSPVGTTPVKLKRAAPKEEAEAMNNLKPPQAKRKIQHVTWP
UniProt Q9NRP2: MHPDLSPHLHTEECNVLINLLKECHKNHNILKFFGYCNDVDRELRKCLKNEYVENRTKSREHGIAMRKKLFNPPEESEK
UniProt Q16566: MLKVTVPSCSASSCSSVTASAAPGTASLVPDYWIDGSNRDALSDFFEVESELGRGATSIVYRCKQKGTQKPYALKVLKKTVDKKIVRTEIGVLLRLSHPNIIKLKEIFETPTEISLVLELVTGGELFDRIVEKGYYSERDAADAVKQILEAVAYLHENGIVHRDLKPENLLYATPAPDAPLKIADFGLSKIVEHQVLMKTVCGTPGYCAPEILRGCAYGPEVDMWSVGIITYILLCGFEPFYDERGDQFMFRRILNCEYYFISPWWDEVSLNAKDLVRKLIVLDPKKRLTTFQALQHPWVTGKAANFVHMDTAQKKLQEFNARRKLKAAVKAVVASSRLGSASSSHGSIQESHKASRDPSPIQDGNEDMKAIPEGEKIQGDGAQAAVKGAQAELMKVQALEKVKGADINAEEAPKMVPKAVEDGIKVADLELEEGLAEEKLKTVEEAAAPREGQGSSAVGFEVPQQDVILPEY

What follows are targets tested with COc1ccc(Cn2ccc3ccc(C(=O)NO)cc32)cc1 (assay: dose-dependent thermal stabilisation call (2D-TPP, DLPTP, 10% FDR) (binary (1 = stabilised)); higher = stabilised by the compound). Conditions: system: HL-60 intact cells; concentration range 0.04-10 µM.
In the case of C1ORF163 (UniProt Q96BR5), the “dose-dependent thermal stabilisation call” value is reported as inactive: 0. With C4ORF41 (UniProt Q7Z392) the “dose-dependent thermal stabilisation call” value was inactive: 0. For CAPG (UniProt P40121), the “dose-dependent thermal stabilisation call” value was inactive: 0. For C2ORF69 (UniProt Q8N8R5), the “dose-dependent thermal stabilisation call” value was inactive: 0. With C14ORF80 (UniProt Q86SX3) the “dose-dependent thermal stabilisation call” value was inactive: 0. For C6ORF129 (UniProt Q9P0B6), the “dose-dependent thermal stabilisation call” value was inactive: 0. For CACYBP (UniProt Q9HB71), the “dose-dependent thermal stabilisation call” value was inactive: 0. C17ORF85 (UniProt Q53F19) was tested, and the “dose-dependent thermal stabilisation call” value was inactive: 0. With C1ORF123 (UniProt Q9NWV4) the “dose-dependent thermal stabilisation call” value was inactive: 0. For CANT1 (UniProt Q8WVQ1), the “dose-dependent thermal stabilisation call” value was inactive: 0. In the case of CAPZA1 (UniProt P52907), the “dose-dependent thermal stabilisation call” value is reported as inactive: 0. C6ORF125 (UniProt Q9BRT2) was tested, and the “dose-dependent thermal stabilisation call” value was inactive: 0. In the case of CBR1 (UniProt P16152), the “dose-dependent thermal stabilisation call” value is reported as inactive: 0. For C3ORF10 (UniProt Q8WUW1), the “dose-dependent thermal stabilisation call” value was inactive: 0. In the case of C3ORF31 (UniProt Q96BW9), the “dose-dependent thermal stabilisation call” value is reported as inactive: 0. In the case of C4ORF30 (UniProt Q9NXF7), the “dose-dependent thermal stabilisation call” value is reported as inactive: 0. C9ORF140 (UniProt Q86UD0) was tested, and the “dose-dependent thermal stabilisation call” value was inactive: 0. For CAST (UniProt P20810), the “dose-dependent thermal stabilisation call” value was inactive: 0. For C14ORF133 (UniProt Q9H9C1), the “dose-dependent thermal stabilisation call” value was inactive: 0. With CBARA1 (UniProt Q9BPX6) the “dose-dependent thermal stabilisation call” value was inactive: 0. In the case of C3ORF1 (UniProt Q9NPL8), the “dose-dependent thermal stabilisation call” value is reported as inactive: 0. With C17ORF81 (UniProt Q8TE02) the “dose-dependent thermal stabilisation call” value was inactive: 0. C6ORF47 (UniProt O95873) was tested, and the “dose-dependent thermal stabilisation call” value was inactive: 0. C8ORF38 (UniProt Q330K2) was tested, and the “dose-dependent thermal stabilisation call” value was inactive: 0. With C8ORF41 (UniProt Q6NXR4) the “dose-dependent thermal stabilisation call” value was inactive: 0. For CAND1 (UniProt Q86VP6), the “dose-dependent thermal stabilisation call” value was inactive: 0. With C20ORF4 (UniProt Q9Y312) the “dose-dependent thermal stabilisation call” value was inactive: 0. In the case of C4ORF14 (UniProt Q8NC60), the “dose-dependent thermal stabilisation call” value is reported as inactive: 0. For C6ORF167 (UniProt Q6ZRQ5), the “dose-dependent thermal stabilisation call” value was inactive: 0. C17ORF75 (UniProt Q9HAS0) was tested, and the “dose-dependent thermal stabilisation call” value was inactive: 0. In the case of C19ORF61 (UniProt Q9H0W8), the “dose-dependent thermal stabilisation call” value is reported as inactive: 0. For CASC4 (UniProt Q6P4E1), the “dose-dependent thermal stabilisation call” value was inactive: 0. With C8ORF55 (UniProt Q8WUY1) the “dose-dependent thermal stabilisation call” value was inactive: 0. C2ORF49 (UniProt Q9BVC5) was tested, and the “dose-dependent thermal stabilisation call” value was inactive: 0. In the case of C1ORF25 (UniProt Q7Z2T5), the “dose-dependent thermal stabilisation call” value is reported as inactive: 0. With C16ORF61 (UniProt Q9NRP2) the “dose-dependent thermal stabilisation call” value was inactive: 0. In the case of C5ORF33 (UniProt Q4G0N4), the “dose-dependent thermal stabilisation call” value is reported as inactive: 0. With CAMK4 (UniProt Q16566) the “dose-dependent thermal stabilisation call” value was inactive: 0.
